From PubChem BioAssay AID1469 (National Center for Advancing Translational Sciences (NCATS), 2008)
Values joined by “and” are separate entries in the source; they are usually repeats but may differ in a detail not shown here. Equal values may be shown once. The campaign covered roughly 280,000 compounds. About 180 (0.064%) were called active. Inconclusive means that the source gave no clear call. Such entries were picked first, then a sample of the others. The call rests on the fitted dose curve; in most records, active means well fitted inhibition curve with a large enough effect; inconclusive means small, poorly fitted or top-dose-only effect, or effect the other way; inactive means flat fitted curve, though single readings scatter. Potencies beside an inconclusive call are fits to weak or partial responses and may not hold up.

By UniProt entry, the sequences of proteins in these tests, tags left out. Where a name states a change or a piece, a line headed by the entry shows the natural chain unless it says otherwise.
UniProt P10828: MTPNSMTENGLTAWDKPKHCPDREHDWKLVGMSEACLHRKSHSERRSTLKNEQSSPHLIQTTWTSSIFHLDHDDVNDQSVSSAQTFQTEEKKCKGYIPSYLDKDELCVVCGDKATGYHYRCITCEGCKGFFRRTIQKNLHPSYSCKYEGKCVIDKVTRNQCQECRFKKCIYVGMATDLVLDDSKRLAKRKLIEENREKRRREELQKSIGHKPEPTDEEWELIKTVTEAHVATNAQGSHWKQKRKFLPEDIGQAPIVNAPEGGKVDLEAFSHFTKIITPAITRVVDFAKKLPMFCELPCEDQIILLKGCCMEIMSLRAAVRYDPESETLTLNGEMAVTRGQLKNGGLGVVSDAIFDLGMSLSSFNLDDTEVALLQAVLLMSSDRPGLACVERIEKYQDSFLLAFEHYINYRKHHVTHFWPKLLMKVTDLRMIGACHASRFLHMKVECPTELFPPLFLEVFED

The compounds below were run against Thyroid hormone receptor beta (Homo sapiens) (UniProt P10828) (assay: qHTS for Inhibitors of the Interaction of Thyroid Hormone Receptor and Steroid Receptor Coregulator 2). Settings: TRbeta-SRC2 peptide binding, fluorescence polarization, receptor liganded with 1 µM T3; series mostly up to 106 µM; activity change, negative = inhibition: at the top concentration.
Text: NIH Molecular Libraries Probe Production Network [MLPCN]
NIH Chemical Genomics Center [NCGC]
Assay Provider: R. Kip Guy, St. Jude Children's Research Hospital
Thyroid receptor (TR) regulates many homeostatic processes including basal metabolism, cardiovascular function, body weight, and lipid trafficking. TR modulators are potential therapeutics for obesity and hyperlipidemias but current thyroid analogs have undesirable side effects, particularly cardiac stimulation. To identify inhibitors that specifically prevent the interaction of TR with the steroid receptor coregulator 2 (SRC2), a fluorescence polarization assay was screened. This assay detects interaction of the ligand-binding domain of human TRb with a Texas Red labeled SRC2 peptide, corresponding to a 20 amino acid region of the nuclear receptor interaction domain (Arnold et al., 2006). Small molecule inhibitors that block the interaction of TR and SRC2 are detected by a decrease in fluorescence polarization.
Arnold, L. A.; Estebanez-Perpina, E.; Togashi, M.; Shelat, A.; Ocasio, C. A.; McReynolds, A. C.; Nguyen, P.; Baxter, J. D.; Fletterick, R. J.; Webb, P.; Guy, R. K. A high-throughput screening method to identify small molecule inhibitors of thyroid hormone receptor coactivator binding. Sci STKE 2006, p 13.
NCGC Assay Protocol Summary:
For screening, 5 uL/well 0.6 uM TRb and 20 nM SRC2 Texas Red in protein buffer (20mM Tris hydrochloride, 100mM NaCl, 10% glycerol, 1mM EDTA, 0.01% NP-40, 1mM DTT, 1uM T3 and 5% DMSO) was dispensed into black solid 1536-well plates (Grenier) using a solenoid-based dispenser. Following transfer of 23 nL compound or DMSO vehicle by a pin tool, the plates were centrifuged 15 s at 1000 RPM and incubated 5 hr at ambient temperature. The plates were read by an Envision (Perkin Elmer) to detect fluorescence polarization of SRC2 Texas Red (555 nm excitation and 632 nm emission). Data were normalized to unbound (all components except TRb) and bound SRC2 Texas Red controls. In this assay, we provide % activity data for each concentration as well as potencies for the active compounds.
Keywords: NIH Roadmap, MLPCN, MLI, MLSMR, qHTS, NCGC, qHTS, thyroid hormone receptor, steroid receptor coactivator, fluorescence polarization
Further: nearly all actives have a fitted effect of over 50% in size.
Potency means the concentration at half of the fitted maximal effect.

**Q.** For `CCCCOc1ccc(C(=O)CCN2CCCCC2)cc1`, which Potency is on record?
**A.** inconclusive: 31.6 µM [inhibitor, partial curve, poor fit] and inconclusive: 15.8 µM [inhibitor, partial curve]

**Q.** How did the Potency turn out when `CCOC(=O)c1c(NC(=O)Cc2coc3cc(C)ccc23)sc2c1CCCC2` was run?
**A.** inconclusive: 2.82 µM [activator, partial curve]

**Q.** Which Potency does the source give for `CCN(CC)S(=O)(=O)c1ccc(N=NC2=C(O)CCCC2=O)cc1` here?
**A.** active: 39.8 µM

**Q.** With `COC(=O)CS(=O)(=O)c1nc2ccccc2nc1N1CCCCC1` as the compound, how does the “activity change, negative = inhibition” value read?
**A.** inactive: -5.67%

**Q.** `CCN1C(=O)c2cccc3c(N)ccc1c23` was tested. Which Potency did it give?
**A.** inconclusive: 50.1 µM [inhibitor, partial curve]

**Q.** `CNC(=S)/N=C/NOCc1ccc(Cl)cc1Cl` was tested. Which “activity change, negative = inhibition” value did it give?
**A.** inactive: 5.45%

**Q.** For `C=CCc1ccccc1OCC(O)CN1CCN(c2ccccc2)CC1` (stereo not given), which Potency is on record?
**A.** inconclusive: 15.8 µM [activator, single point]

**Q.** How did the Potency turn out when `Cc1cc(=O)cc2oc3cc(N)c(-c4c(C)cc(O)cc4O)c(C)c3nc1-2` was run?
**A.** inconclusive: 2.24 µM [inhibitor, full curve, poor fit]

**Q.** `N[C@@H](COP(=O)(O)O)C(=O)O` was tested. Which Potency did it give?
**A.** inconclusive: 44.7 µM [inhibitor, partial curve]

**Q.** How did the Potency turn out when `CN1N=C(C(C)(C)C)CC1=O` was run?
**A.** inconclusive: 35.5 µM [inhibitor, full curve]

**Q.** How did the Potency turn out when `CCN(CC)S(=O)(=O)c1ccc(N2CCOCC2)c(NC(=O)CCC2CCCCC2)c1` was run?
**A.** inconclusive: 15.8 µM [inhibitor, partial curve]

**Q.** `C(=N\Nc1nc2ccccc2[nH]1)/c1cccs1` was tested. Which Potency did it give?
**A.** inconclusive: 25.1 µM [inhibitor, full curve]

**Q.** For `COc1ccc(-c2cc(C(F)(F)F)n3nc(C(=O)NCC45CC6CC(CC(C6)C4)C5)cc3n2)cc1OC`, which Potency is on record?
**A.** inconclusive: 28.2 µM [inhibitor, partial curve]

**Q.** For `COc1cc(N2CCCC2)c(OC)cc1/C=C(/C#N)c1cccc(F)c1`, which Potency is on record?
**A.** inconclusive: 35.5 µM [inhibitor, partial curve]

**Q.** How did the Potency turn out when `CCOc1cc(CNc2ccc(O)cc2)cc(Br)c1OCc1ccccc1F` was run?
**A.** active: 31.6 µM

**Q.** `CCSc1nnc(NC(=O)C(C)C)s1` was tested. Which “activity change, negative = inhibition” value did it give?
**A.** inactive: -4.96%

**Q.** With `COc1c(O)c2c(=O)cc(OC)c3c4c(OC)cc(=O)c5c(O)c(OC)c6c(c(c1C[C@@](C)(O)[C@H]6C(C)=O)c23)c54` as the compound, how does the Potency read?
**A.** active: 35.5 µM

**Q.** For `COC(=O)c1ccccc1NC1=C/C(=N\S(=O)(=O)c2cccs2)c2ccccc2C1=O`, which Potency is on record?
**A.** inconclusive: 39.8 µM [inhibitor, partial curve]

**Q.** How did the “activity change, negative = inhibition” value turn out when `O=C(OCCN1CCOCC1)C(c1ccccc1)c1ccccc1` was run?
**A.** inactive: 2.42%

**Q.** How did the “activity change, negative = inhibition” value turn out when `O=C(Cc1ccccc1)Nc1nc(-c2cccc([N+](=O)[O-])c2)cs1` was run?
**A.** inactive: -12.1%

**Q.** Which Potency does the source give for `COc1ccc(NS(=O)(=O)c2ccc(O)c(NC(=O)c3cc4c(C)nn(-c5ccc(F)cc5)c4s3)c2)cc1` here?
**A.** inconclusive: 50.1 µM [activator, partial curve]

**Q.** `Cc1noc(-c2ccc(CSCCC(=O)O)cc2)c1NC(=O)OC(C)c1ccccc1Cl` (stereo not given) was tested. Which “activity change, negative = inhibition” value did it give?
**A.** inactive: 4.8%

**Q.** Which Potency does the source give for `COCCNC(=O)C(=O)Nc1ccc(Br)cc1` here?
**A.** inconclusive: 35.5 µM [inhibitor, single point]

**Q.** Which Potency does the source give for `COCCOC(=O)c1sc(=S)n(CCOC)c1N` here?
**A.** active: 39.8 µM

**Q.** `COc1cc(NS(=O)(=O)c2ccc(NC(=O)COc3ccccc3Cl)cc2)nc(OC)n1` was tested. Which Potency did it give?
**A.** inconclusive: 50.1 µM [activator, single point]

**Q.** For `CCCCc1nn2c(=O)cc(COC(=O)COc3ccc(C)cc3)nc2s1`, which “activity change, negative = inhibition” value is on record?
**A.** inactive: -6.09%

**Q.** With `Cc1ccc2nc(-c3cccc(NC(=O)c4cccc5c(Cl)cccc45)c3)oc2c1` as the compound, how does the Potency read?
**A.** inconclusive: 10 µM [inhibitor, partial curve, poor fit]

**Q.** Which Potency does the source give for `O=C1CCCC(O)=C1N=Nc1cccc(S(=O)(=O)N2CCOCC2)c1` here?
**A.** inconclusive: 14.1 µM [inhibitor, full curve]

**Q.** `N#Cc1c(NCc2ccccc2)ccnc1NCc1cccnc1` was tested. Which “activity change, negative = inhibition” value did it give?
**A.** inactive: -0.416%

**Q.** With `O=C1C2C3C=CC(C3)C2C(=O)N1CNc1ccc(O)cc1` (stereo not given) as the compound, how does the Potency read?
**A.** active: 25.1 µM

**Q.** For `COc1ccc(/C=C/C(=O)c2c(O)cc(C)oc2=O)c(OC)c1`, which “activity change, negative = inhibition” value is on record?
**A.** inactive: 5.31%

**Q.** Which Potency does the source give for `CC1CN(CC(O)COC(c2ccc(Cl)cc2)c2ccc(Cl)cc2)CC(C)O1` (stereo not given) here?
**A.** inconclusive: 10 µM [activator, partial curve, poor fit]

**Q.** With `OCC1OC([S-])[C@H](O)C(O)C1O.[Au+]` (stereo not given in full) as the compound, how does the Potency read?
**A.** inconclusive: 50.1 µM [activator, partial curve, poor fit]

**Q.** How did the “activity change, negative = inhibition” value turn out when `Cc1ccc(C)c(CN2C(=O)COc3ccc(C(=O)c4ccccc4C(=O)O)cc32)c1` was run?
**A.** inactive: -6.89%

**Q.** With `COc1ccc(-c2nc(SCC(=O)Nc3ccc4c(c3)OCO4)c(-c3ccc(OC)cc3)[nH]2)cc1` as the compound, how does the “activity change, negative = inhibition” value read?
**A.** inactive: -3.63%

**Q.** For `CN(C)c1ccc(N/C=C/C(=O)c2ccccc2)cc1`, which Potency is on record?
**A.** active: 31.6 µM

**Q.** With `O=S(=O)([O-])CCC[n+]1c(/C=C\Nc2ccccc2)oc2ccc(-c3ccccc3)cc21` as the compound, how does the Potency read?
**A.** inconclusive: 70.8 µM [inhibitor, single point]

**Q.** With `O=[N+]([O-])c1cc(/C=N\Nc2nccs2)ccc1O` as the compound, how does the Potency read?
**A.** inconclusive: 50.1 µM [activator, partial curve]

**Q.** How did the Potency turn out when `CC(C)c1onc(-c2c(Cl)cccc2Cl)c1COc1ccc(/C=C/c2cccc(C(=O)O)c2)c(Cl)c1` was run?
**A.** inconclusive: 70.8 µM [activator, single point]

**Q.** For `CCCC(=Nc1ccc(N)cc1)C1=C(O)C(C(=O)OC)C(C)(C)CC1=O` (stereo not given), which Potency is on record?
**A.** active: 35.5 µM

**Q.** `CC(C)(C)OC(=O)C1=NOC2(C=CC(=O)C=C2)C1` was tested. Which Potency did it give?
**A.** inactive

**Q.** For `Nc1cccnc1Sc1cc(Cl)c(Cl)cc1Cl`, which Potency is on record?
**A.** inconclusive: 44.7 µM [inhibitor, partial curve]

**Q.** For `C=CCN1C(=O)CS/C1=C(\C#N)S(=O)(=O)c1ccc(C)cc1`, which Potency is on record?
**A.** inconclusive: 8.91 µM [activator, full curve]

**Q.** How did the Potency turn out when `CCCCC(=Nc1ccc(N)cc1)C1=C(O)C(C(=O)OC)C(C)(C)CC1=O` (stereo not given) was run?
**A.** inconclusive: 44.7 µM [inhibitor, partial curve]

**Q.** Which Potency does the source give for `CCOc1cc(C(c2c(C)[nH][nH]c2=O)c2c(C)[nH][nH]c2=O)ccc1OCc1ccc([N+](=O)[O-])cc1` here?
**A.** inconclusive: 70.8 µM [inhibitor, single point]
